Measurements taken from patent publication US20250223358A1.
Numbering of substitutions follows the chain as printed. No constants are given. Whether binding was seen depends on the method and setting. Some results given as binding are weak or reduced against the parent protein; the word gives no strength.

Sequences of proteins named here, by UniProt entry; tags and fusion partners are left off. A change or cut given only in a name is not applied to a line headed by its entry.
UniProt Q95LI5: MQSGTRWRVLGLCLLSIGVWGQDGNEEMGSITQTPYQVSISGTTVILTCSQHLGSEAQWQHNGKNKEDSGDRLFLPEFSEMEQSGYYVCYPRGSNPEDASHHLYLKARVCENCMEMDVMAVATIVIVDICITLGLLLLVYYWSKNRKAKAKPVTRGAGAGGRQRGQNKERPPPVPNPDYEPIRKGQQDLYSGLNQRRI
UniProt Q95LI8: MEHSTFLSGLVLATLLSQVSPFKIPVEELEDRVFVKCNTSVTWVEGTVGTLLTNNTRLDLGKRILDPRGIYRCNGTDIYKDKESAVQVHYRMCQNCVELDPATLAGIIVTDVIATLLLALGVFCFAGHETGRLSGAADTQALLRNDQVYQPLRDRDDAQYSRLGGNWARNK
UniProt Q95LI7: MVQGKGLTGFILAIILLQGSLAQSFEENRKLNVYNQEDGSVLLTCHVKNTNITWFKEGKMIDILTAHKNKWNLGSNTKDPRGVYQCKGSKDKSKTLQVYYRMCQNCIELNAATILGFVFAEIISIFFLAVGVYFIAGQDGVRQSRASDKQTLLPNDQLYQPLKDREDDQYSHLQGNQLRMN
UniProt P07766: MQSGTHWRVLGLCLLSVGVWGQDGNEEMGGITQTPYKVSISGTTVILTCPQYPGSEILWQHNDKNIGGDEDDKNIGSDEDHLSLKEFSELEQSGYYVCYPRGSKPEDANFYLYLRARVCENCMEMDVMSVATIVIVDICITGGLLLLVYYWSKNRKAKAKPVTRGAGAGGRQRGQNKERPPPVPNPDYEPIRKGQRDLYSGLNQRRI
UniProt P04234: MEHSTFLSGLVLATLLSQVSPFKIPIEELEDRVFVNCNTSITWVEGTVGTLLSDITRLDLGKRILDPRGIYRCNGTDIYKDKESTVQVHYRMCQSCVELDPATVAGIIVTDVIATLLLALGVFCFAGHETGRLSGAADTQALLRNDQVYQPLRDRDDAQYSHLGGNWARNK
UniProt P09693: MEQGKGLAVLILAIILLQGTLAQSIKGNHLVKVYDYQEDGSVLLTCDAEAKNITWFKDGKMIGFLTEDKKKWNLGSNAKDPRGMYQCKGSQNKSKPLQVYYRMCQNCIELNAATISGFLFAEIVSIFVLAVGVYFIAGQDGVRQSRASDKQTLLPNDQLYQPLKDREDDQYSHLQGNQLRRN

Experiments:
[1] = biological target: T1, cynomolgus CD3 (cynomolgus (Macaca fascicularis)) (UniProt Q95LI5+Q95LI8+Q95LI7); assay: FACS on 293T-cynoCD3mix cells
[2] = biological target: T1, cynomolgus CD3 (cynomolgus (Macaca fascicularis)); assay: binding test of N55 deamidation-site mutants (hu147E2-L1H3a; FACS data given for 293T-cynoCD3mix)
[3] = biological target: T1, cynomolgus CD3 (cynomolgus (Macaca fascicularis)); assay: binding test of N55 deamidation-site mutants (hu147E2-L1H3b; FACS data given for 293T-cynoCD3mix)
human CD3 (human) [4] = biological target: T2, human CD3 (human) (UniProt P07766+P04234+P09693); assay: FACS on 293T-hCD3mix cells
[5] = biological target: T1, cynomolgus CD3 (cynomolgus (Macaca fascicularis)); assay: FACS on 293F-cynoCD3mix cells
human CD3 (human) [6] = biological target: T2, human CD3 (human); assay: FACS on Jurkat cells

B1: hu147E2-L1H3a (antibody, V domains shown)
VH: EVQLVQSGAEVKKPGSSVKVSCKASGYTFTSYWMHWVRQAPGQGLEWMGNINPSQGATNYNEKFKSRVTLTVDKSTSTAYMELSSLRSEDTAVYYCARDRSSQYYFDYWGQGTTVTVSS
VL: DIVMTQSPDSLAVSLGERATINCKSSQSLLNSRSRKNYLAWYQQKPGQPPKLLIYWASTRESGVPDRFSGSGSGTDFTLTISSLQAEDVAVYYCTQSYTLRTFGGGTKVEIK
B1 was tested, and the binding [1] was “binds” and the binding [2] was “binds”.

B2: hu147E2-L1H3b (antibody, V domains shown)
VH: B1 VH with Q55S
VL: B1 VL
In the case of B2, the binding [3] is reported as “binds” and the binding [1] is reported as “binds”.

B3: 7-D8-G12-E4 (antibody, V domains shown)
VH: EVKLVESGGGLVKPGGSLKLSCAASGFTFSSYPMSWVRQTPAKRLEWVATISSGGGNTYYPDSVKGRFTISRDNARNTLYLQMSSLRSEDTAMYYCARGLYWYFDVWGAGTTVTVSS
VL: DIVLTQSPLSLPVSLGDQASISCRSSQSIAHSNGDTYLEWYLQNPGQSPKLLIYKVSNRISGVPDRFSGSGSGTDFTLKISRVEAEDLGVYYCFQGSHVPYTFGGGTKLEIK
In the case of B3, the binding (human CD3 (human) [4]) is reported as “binds”.

B4: 2-F12-A6-G2 (antibody, V domains shown)
VH: EVQLVESRPGLVAPSQSLSITCTVSGFSLTSYGVSWVRQPPGKGLEWLGVIWGDGNTNYNSDLKTSLSISKDNSKSQVFLKLDSLQTDDTATYYCAKVSYWYFDVWGTGTTVTVSS
VL: DIQLTQPPASLSASVGETVTITCRASENIYSYLAWYQQKQGKSPQLLVYNAKTLPEGVPSRFSGSGSGTQFSLKINSLQPEDFGTYYCQHHYGTPPTFGTGTKLELK
B4 was tested, and the binding (human CD3 (human) [4]) was “binds”.

B5: 3-C6-C11-F12 (antibody, V domains shown)
VH: EVHLVESGGGLVQPGGSRKLSCAGSGFTFSTYGMHWVRQAPEKGLEWVAYISNGGSTIYYADSVKGRFTISRDNPNDTLFLHMTSLGSEDTAMYYCARPTWGGFAYWGQGTLVTVSA
VL: B3 VL
With B5 the binding (human CD3 (human) [4]) was “binds”.

B6: 4-F12-F1-A4 (antibody, V domains shown)
VH: EVKLVESGGGLVKPGGSLKLSCAASGFTFSSYTMSWIRQTPAKRLEWVATISSGGGNTFYADSVKGRFTISRDNARNTLNLQMSSLRSEDTAMYYCARSLYYYDGTYVRKDYYAMDYWGQGSSVTVSS
VL: DIQMTQSPASLSVSVGETVTISCRASENIFSNLAWYQQKQGKSPQLLVYAATNLAEGVPSRFSGSRSGTQFSLKINSLQSEDFGSYYCQQFWGTPWTFGGGTKLEVK
B6 was tested, and the binding (human CD3 (human) [4]) was “binds”.

B7: 124E3D6 (antibody, V domains shown)
VH: QVQLQQPGTELVKPGASVKLSCKASGYTFTSYWMHWVKQRPGQGLEWIGNINPSNGDTNYNEKFKSKATLTVDKSSSTAYMQLSSLTSEDSAVYYCARDRSSQYYFDYWGQGTTLTVSS
VL: DIVMSQSPSSLAVSAGEKVTMSCKSSQSLLNSRTRKNYLAWYQQKPGQSPKLLIYWASTRESGVPDRFTGSGSGTDFTLTISSVQAEDLAVYYCKQSYNLRTFGGGTKLEIK
With B7 the binding [5] was “binds” and the binding (human CD3 (human) [6]) was “binds”.

B8: 126A11A4 (antibody, V domains shown)
VH: B7 VH with G42E, S75A, S77N, A97G
VL: B7 VL with Y93F, Y98F, N99I
With B8 the binding [5] was “binds” and the binding (human CD3 (human) [6]) was “binds”.

B9: 127E2D3 (antibody, V domains shown)
VH: B7 VH with Q43E, N52Y, S54G, N55S, G56S, D57S, T58I
VL: B7 VL with K95T
With B9 the binding [5] was “binds” and the binding (human CD3 (human) [6]) was “binds”.

B10: 133B4C7 (antibody, V domains shown)
VH: B7 VH with Y60F
VL: B7 VL with K24N, N99T
In the case of B10, the binding [5] is reported as “binds” and the binding (human CD3 (human) [6]) is reported as “binds”.

B11: 140D2B10 (antibody, V domains shown)
VH: B7 VH with D57E, T58S, S91Y
VL: B7 VL with N99T
For B11, the binding [5] was “binds” and the binding (human CD3 (human) [6]) was “binds”.

B12: 147C6F3 (antibody, V domains shown)
VH: B7 VH with T30D, I51L, D57E, T58I, S66H, A97S
VL: B7 VL with M21L, P46S, I54M, S82T, S83N, N99I
For B12, the binding [5] was “binds” and the binding (human CD3 (human) [6]) was “binds”.

B13: 147E11E2 (antibody, V domains shown)
VH: B7 VH with A16T, D57A
VL: B7 VL with T34S, K95T, N99T
With B13 the binding [5] was “binds” and the binding (human CD3 (human) [6]) was “binds”.
